Data: paper PMC7865656
Results are given in words; binding and its absence hold for the method and conditions named. In cells and extracts the contact can be indirect. Some results given as binding are weak or reduced against the parent protein; the word gives no strength.

By UniProt entry, the sequences of proteins in these tests, tags left out.
UniProt P01106: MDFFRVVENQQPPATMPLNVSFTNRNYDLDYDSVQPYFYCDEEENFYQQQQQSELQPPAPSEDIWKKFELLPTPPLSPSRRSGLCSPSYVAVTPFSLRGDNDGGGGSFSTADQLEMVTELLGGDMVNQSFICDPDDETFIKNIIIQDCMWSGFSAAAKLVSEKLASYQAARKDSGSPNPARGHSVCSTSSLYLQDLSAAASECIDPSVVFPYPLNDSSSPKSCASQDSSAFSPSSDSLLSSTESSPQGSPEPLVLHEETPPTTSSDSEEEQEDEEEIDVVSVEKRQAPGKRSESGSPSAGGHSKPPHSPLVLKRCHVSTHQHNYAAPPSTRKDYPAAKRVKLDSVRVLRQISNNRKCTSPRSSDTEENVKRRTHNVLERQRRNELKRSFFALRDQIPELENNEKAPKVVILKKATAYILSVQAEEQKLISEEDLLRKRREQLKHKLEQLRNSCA
UniProt Q969H0: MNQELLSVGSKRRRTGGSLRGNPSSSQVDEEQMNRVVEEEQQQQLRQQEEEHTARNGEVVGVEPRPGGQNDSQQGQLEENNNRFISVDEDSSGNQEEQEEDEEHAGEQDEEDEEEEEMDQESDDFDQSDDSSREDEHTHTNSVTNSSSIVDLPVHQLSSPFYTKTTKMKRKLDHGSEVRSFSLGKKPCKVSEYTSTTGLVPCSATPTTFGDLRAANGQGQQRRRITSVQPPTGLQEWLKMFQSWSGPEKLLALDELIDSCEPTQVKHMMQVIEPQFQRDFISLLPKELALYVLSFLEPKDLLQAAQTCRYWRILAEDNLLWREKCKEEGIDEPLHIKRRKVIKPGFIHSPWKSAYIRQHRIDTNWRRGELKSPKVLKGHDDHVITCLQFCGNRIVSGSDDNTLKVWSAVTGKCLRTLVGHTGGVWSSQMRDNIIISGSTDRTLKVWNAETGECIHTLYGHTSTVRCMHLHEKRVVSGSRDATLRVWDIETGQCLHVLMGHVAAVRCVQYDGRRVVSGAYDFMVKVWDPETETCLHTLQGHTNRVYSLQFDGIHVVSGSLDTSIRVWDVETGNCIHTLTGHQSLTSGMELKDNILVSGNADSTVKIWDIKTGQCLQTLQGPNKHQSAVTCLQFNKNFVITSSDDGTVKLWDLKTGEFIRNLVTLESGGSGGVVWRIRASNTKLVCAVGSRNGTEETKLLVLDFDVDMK
UniProt P53350: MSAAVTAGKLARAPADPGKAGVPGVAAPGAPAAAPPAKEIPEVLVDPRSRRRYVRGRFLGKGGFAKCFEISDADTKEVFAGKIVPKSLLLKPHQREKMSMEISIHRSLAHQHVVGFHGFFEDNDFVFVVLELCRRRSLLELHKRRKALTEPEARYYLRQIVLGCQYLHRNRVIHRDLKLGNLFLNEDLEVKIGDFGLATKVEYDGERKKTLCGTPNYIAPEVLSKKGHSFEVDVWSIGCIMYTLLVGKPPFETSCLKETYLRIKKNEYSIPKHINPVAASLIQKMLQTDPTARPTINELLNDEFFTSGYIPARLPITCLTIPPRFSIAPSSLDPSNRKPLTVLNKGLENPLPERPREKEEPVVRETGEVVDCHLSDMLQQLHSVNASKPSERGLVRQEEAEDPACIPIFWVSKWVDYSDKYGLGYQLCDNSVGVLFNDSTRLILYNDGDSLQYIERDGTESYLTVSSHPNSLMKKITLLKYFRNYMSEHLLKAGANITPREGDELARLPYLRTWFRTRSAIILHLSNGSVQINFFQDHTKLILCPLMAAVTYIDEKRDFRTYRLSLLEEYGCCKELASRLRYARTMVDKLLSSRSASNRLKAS

Target: c-MYC (human (endogenous in D458)) (UniProt P01106)
Experiment: co-IP; lysates of D458 cells (RIPA buffer) immunoprecipitated with an anti-c-MYC antibody and Dynabeads; immunoblot with anti-PLK1 or anti-FBXW7 antibodies; IgG as control for specificity; endogenous proteins

binding | Substance
binds | FBXW7 (from UniProt Q969H0 1-707)
binds | Polo-like kinase 1 (PLK1) (from UniProt P53350 1-603) (enzyme)
